Measurements reported in patent publication US20150337356A1.

Amino acid sequences for entries named in this document (tags omitted). A change or cut given only in a name is not applied to a line headed by its entry. Chains listed by the source or under a name are the forms on record and can include a tag or linker.
UniProt P78536: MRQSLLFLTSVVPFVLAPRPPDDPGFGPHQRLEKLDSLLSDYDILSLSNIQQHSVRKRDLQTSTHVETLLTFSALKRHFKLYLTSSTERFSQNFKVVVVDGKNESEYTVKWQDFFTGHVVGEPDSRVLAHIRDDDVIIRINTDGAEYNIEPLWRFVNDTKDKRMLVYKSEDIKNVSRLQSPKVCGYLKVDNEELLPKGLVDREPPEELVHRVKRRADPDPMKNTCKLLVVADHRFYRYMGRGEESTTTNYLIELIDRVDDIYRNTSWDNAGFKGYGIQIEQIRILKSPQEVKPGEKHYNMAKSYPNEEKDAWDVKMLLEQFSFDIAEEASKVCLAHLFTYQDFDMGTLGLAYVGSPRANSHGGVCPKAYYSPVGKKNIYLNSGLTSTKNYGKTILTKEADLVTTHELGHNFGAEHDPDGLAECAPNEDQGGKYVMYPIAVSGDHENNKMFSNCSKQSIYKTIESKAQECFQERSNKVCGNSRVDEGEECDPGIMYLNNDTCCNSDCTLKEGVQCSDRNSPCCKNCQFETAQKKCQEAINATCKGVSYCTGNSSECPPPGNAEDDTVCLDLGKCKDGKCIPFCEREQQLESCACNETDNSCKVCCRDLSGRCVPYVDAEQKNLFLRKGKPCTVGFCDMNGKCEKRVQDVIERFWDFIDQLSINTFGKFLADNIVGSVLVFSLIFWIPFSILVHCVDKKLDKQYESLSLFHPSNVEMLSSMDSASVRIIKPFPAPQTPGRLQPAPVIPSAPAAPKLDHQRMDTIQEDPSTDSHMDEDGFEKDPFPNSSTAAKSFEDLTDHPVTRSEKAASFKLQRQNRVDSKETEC
paxillin (wild type) (P49023, form named): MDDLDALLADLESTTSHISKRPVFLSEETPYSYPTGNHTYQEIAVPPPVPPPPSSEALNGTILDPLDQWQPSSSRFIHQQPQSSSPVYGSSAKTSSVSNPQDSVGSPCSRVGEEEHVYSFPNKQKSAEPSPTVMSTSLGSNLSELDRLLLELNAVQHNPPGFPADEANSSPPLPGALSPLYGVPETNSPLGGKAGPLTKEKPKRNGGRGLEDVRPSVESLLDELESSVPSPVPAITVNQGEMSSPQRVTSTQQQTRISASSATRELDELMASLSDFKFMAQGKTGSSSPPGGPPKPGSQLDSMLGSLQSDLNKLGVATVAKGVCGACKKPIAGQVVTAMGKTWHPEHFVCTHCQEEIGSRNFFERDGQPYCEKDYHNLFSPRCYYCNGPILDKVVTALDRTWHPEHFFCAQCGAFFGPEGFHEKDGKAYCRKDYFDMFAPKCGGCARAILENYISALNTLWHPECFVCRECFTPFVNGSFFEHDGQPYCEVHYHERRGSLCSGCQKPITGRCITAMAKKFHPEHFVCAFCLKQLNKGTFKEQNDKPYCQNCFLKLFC
paxillin S258A (P49023, form named): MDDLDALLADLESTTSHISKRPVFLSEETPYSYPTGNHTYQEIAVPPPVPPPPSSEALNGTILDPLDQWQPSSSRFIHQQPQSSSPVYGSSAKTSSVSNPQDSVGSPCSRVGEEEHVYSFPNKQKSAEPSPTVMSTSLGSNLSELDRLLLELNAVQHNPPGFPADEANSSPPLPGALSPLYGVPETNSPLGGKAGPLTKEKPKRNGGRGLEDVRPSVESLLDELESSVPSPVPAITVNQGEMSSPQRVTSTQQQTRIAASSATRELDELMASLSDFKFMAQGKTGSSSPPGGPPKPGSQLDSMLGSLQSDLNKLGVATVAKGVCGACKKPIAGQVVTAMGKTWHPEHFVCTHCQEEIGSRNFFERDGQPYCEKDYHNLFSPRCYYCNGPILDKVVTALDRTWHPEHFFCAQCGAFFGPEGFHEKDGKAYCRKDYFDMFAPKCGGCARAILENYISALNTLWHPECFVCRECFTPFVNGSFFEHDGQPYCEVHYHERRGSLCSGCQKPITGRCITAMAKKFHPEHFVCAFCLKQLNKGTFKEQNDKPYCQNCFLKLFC
paxillin S272/274E (P49023, form named): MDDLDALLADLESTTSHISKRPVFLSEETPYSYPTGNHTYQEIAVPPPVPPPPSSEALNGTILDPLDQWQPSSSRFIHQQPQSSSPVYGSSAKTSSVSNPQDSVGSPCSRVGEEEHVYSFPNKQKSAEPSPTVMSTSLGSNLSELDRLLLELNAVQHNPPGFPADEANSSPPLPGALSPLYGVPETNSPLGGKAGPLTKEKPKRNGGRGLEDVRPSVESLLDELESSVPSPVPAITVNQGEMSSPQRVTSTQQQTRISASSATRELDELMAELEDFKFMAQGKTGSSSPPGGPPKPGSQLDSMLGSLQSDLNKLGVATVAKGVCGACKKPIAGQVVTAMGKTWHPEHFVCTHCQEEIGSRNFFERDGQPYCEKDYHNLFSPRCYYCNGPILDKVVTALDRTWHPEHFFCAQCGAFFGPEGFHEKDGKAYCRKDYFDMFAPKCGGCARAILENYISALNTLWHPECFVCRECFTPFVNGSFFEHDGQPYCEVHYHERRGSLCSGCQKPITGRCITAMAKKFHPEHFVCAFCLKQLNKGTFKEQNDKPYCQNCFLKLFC

What was measured:
[1] = biological target: TNFα converting enzyme (TACE/ADAM17) (UniProt P78536); test: co-immunoprecipitation with Nef/mNAKC and constitutive active Pak1/2 (FIG. 2D)
[2] = biological target: TNFα converting enzyme (TACE/ADAM17) (UniProt P78536); test: co-immunoprecipitation of paxillin and TACE in the presence of Pak1/2 mutants (FIG. 2C)
[3] = biological target: TNFα converting enzyme (TACE/ADAM17) (UniProt P78536); test: co-immunoprecipitation of paxillin and TACE, 293T cells (FIG. 2A)
[4] = biological target: TNFα converting enzyme (TACE/ADAM17) (UniProt P78536); test: co-immunoprecipitation of paxillin mutants and TACE, 293T cells (FIG. 2A)

Substance | binding [1] | binding [2] | binding [3] | binding [4]
paxillin (wild type) (from UniProt P49023 1-557) | binds | binds | binds | 
paxillin S258A (from UniProt P49023 1-557) | binds |  |  | binds
paxillin S272/274E (from UniProt P49023 1-557) |  |  |  | binds

These are yes or no findings as the source states them, for the method shown. In cells and extracts the contact can be indirect. Binding can be weak; no strength is given.
